Reference: PubChem BioAssay AID493014 (National Center for Advancing Translational Sciences (NCATS), 2011)
The other results are listed elsewhere or left out. These are further read-outs of the screen, such as a control signal, another cell line or another target. No call is given for them. Most of these compounds were active or inconclusive in the main read-out, so they are no random draw. Potencies come from curve fits of mixed quality, noted in brackets.

Test: qHTS Assay to Find Inhibitors of Chronic Active B-Cell Receptor Signaling
Conditions: ABC-DLBCL IkBa-CBG/CBR reporter, luminescence ratio (green luciferase fused to IkBa over red control in TMD8 lymphoma cells), 4 h
In short: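 Compounds up to 46 uM were incubated four hours with TMD8 cells whose green CBG68 luciferase is fused to IkappaBalpha; red CBR luminescence normalised the signal, and concentration-effect curves were fitted to fusion, red and ratio data.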

[1] = measured here: CBR red luminescence, cell number
[2] = measured here: IkBa-CBG green luminescence

With `COCc1cc(=O)n2[nH]c(-c3cccs3)cc2n1` the AC50 [1] was 11.2 µM [falling, partial curve, poor fit].
With `COCCNC(=O)[C@H]1N2C(=O)c3c(ccc(OC)c3OC)C2SC1(C)C` (stereo partly drawn) the AC50 [1] was 4.47 µM [rising, full curve, poor fit].
In the case of `CC(=O)Oc1cc2oc(=O)cc(C)c2cc1OC(C)=O`, the AC50 [1] is reported as 22.4 µM [falling, single point].
With `O=C(O)CSc1cc(NS(=O)(=O)c2ccc(Cl)cc2)c2ccccc2c1O` the AC50 [1] was 22.4 µM [falling, single point].
With `COc1ccc(CCNC(=O)CSc2nnc(CNC(=O)c3c(F)cccc3Cl)o2)cc1OC` the AC50 [1] was 3.55 µM [rising, partial curve, poor fit].
In the case of `O=C1C2=C(NC(=S)NC2c2ccc(Cl)cc2)NC(c2ccc(Cl)cc2)N1c1ccc(Cl)cc1` (stereo not drawn), the AC50 [1] is reported as 10 µM [falling, partial curve].
For `O=C(NCCC1=CCCCC1)c1ccc2c(=O)n3c(nc2c1)CCCCC3`, the AC50 [1] was 2.82 µM [rising, full curve, poor fit].
For `CC(=O)Nc1sc2c(c1-c1nc3ccccc3s1)CN(C(C)C)CC2`, the AC50 [1] was 29.1 µM [falling, single point].
For `O=C(CN1CCCN(S(=O)(=O)c2ccc(Br)s2)CC1)Nc1ccc(Cl)cc1`, the AC50 [1] was 20.6 µM [falling, single point].
In the case of `Cn1c(-c2ccc(F)cc2)cc2onc(-c3ccccc3Cl)c2c1=O`, the AC50 [1] is reported as 1.64 µM [rising, partial curve, poor fit].
For `O=C(OCn1ncc(Br)c(Br)c1=O)c1ccccc1Cl`, the AC50 [1] was 5.8 µM [falling, full curve, poor fit] and the AC50 [2] was 3.66 µM [rising, full curve, poor fit].
For `CC1CCc2c(sc(NC(=O)c3ccccc3C(=O)O)c2C#N)C1` (stereo not drawn), the AC50 [1] was 11.2 µM [falling, partial curve, poor fit].
With `Cc1nn(-c2ncc(C(F)(F)F)cc2Cl)c(=O)n1-c1ccccc1` the AC50 [1] was 18.4 µM [rising, partial curve, poor fit].
For `N/C(=N\OC(=O)/C=C/c1ccccc1)c1cccnc1`, the AC50 [1] was 17.8 µM [falling, single point].
For `COCCNc1nc(-c2cc3ccccc3o2)cs1`, the AC50 [1] was 4.61 µM [falling, full curve, poor fit].
In the case of `CCCc1nnc(NC(=O)c2cc3ccccc3oc2=O)s1`, the AC50 [1] is reported as 8.2 µM [rising, partial curve, poor fit].
In the case of `O=C1c2ccccc2NC(c2ccco2)N1/N=C/c1ccco1` (stereo not drawn), the AC50 [1] is reported as 35.5 µM [falling, single point].
For `O=C(C1CCN(CCCc2ccccc2)CC1)N(CCc1ccccc1)Cc1ccccc1`, the AC50 [1] was 13 µM [falling, partial curve, poor fit].
In the case of `O=C(/C=C/NCC(=O)c1ccccc1)c1ccc(Br)cc1`, the AC50 [1] is reported as 11.6 µM [falling, partial curve].
In the case of `O=C(Nc1cccc(Cl)c1)c1ccc(F)c(S(=O)(=O)N2CCC3(CC2)OCCO3)c1`, the AC50 [1] is reported as 2.24 µM [rising, partial curve, poor fit].
For `Cc1ccc(-c2cc(C(=O)N/N=C/c3ccoc3)c3ccccc3n2)cc1`, the AC50 [1] was 35.5 µM [rising, single point].
For `O=C(Nc1ccc2oc(-c3ccncc3)nc2c1)c1ccc([N+](=O)[O-])o1`, the AC50 [1] was 14.1 µM [rising, single point].
For `Cc1ccc(-n2c(O)c(C=Nc3cc(C)on3)c3ccccc3c2=O)c(C)c1`, the AC50 [1] was 32.6 µM [rising, partial curve, poor fit].
With `CCC(C)NC(=O)CSc1nc2n[nH]c(C)c2c(=N)n1-c1ccc(C)c(Cl)c1` (stereo not drawn) the AC50 [1] was 20 µM [falling, partial curve, poor fit].
In the case of `O=C(c1ccccc1)N1N=C(C(F)(F)F)CC1(O)c1ccccc1O` (stereo not drawn), the AC50 [1] is reported as 22.4 µM [falling, single point].
With `O=C(NCCOc1ccccc1)c1cc(C(=O)NCCOc2ccccc2)cc([N+](=O)[O-])c1` the AC50 [1] was 14.6 µM [falling, partial curve].
For `Cc1ccc2oc(=O)c3cnn(CC(=O)N4CCN(c5ccccc5)CC4)c3c2c1`, the AC50 [1] was 2.31 µM [falling, partial curve, poor fit].
For `Cc1cc(C(=O)N/N=C/c2cccnc2)c(C)o1`, the AC50 [1] was 18.4 µM [falling, partial curve].
For `N/C(=N\OC(=O)CCCc1ccccc1)c1ccccc1`, the AC50 [1] was 5.01 µM [rising, full curve].
For `Cc1cc(C)cc(NC(=O)N2CCCC2C(=O)Nc2ccc(-n3cnnn3)cc2)c1` (stereo not drawn), the AC50 [1] was 6.51 µM [rising, single point].
For `CCOC(=O)c1[nH]c2ccc(OC)cc2c1NC(=S)N1CCN(c2cccc(Cl)c2)CC1`, the AC50 [1] was 32.6 µM [rising, single point].
In the case of `COc1ccc(Oc2nc(Oc3ccc(OC)cc3)nc(Oc3ccc(OC)cc3)n2)cc1`, the AC50 [1] is reported as 0.651 µM [falling, full curve].
In the case of `CCN(c1ccccc1)S(=O)(=O)c1ccc(C(=O)Nc2ccc(C)cn2)cc1`, the AC50 [1] is reported as 5.8 µM [rising, partial curve, poor fit].
In the case of `O=C(NCc1ccco1)C(=O)NCC1OCCCN1S(=O)(=O)c1ccc(F)cc1` (stereo not drawn), the AC50 [1] is reported as 6.31 µM [falling, single point].
For `CCOc1cccc(C2CC(=O)Nc3cc(OC)c(OC)cc32)c1` (stereo not drawn), the AC50 [1] was 20 µM [rising, partial curve, poor fit] and the AC50 [2] was 11.2 µM [falling, partial curve].
For `CCOC(=O)C1CCCN(CCC(=O)Nc2cccc(C)c2)C1` (stereo not drawn), the AC50 [1] was 20 µM [falling, single point].
In the case of `CCCOc1cccc(C(=O)N(Cc2ccc(OC)c(OC)c2)C2CCS(=O)(=O)C2)c1` (stereo not drawn), the AC50 [1] is reported as 0.103 µM [rising, full curve, poor fit].
With `CCOC(=O)c1[nH]c2c(c1-c1ccccc1)C(=O)CC(c1ccc(OC)c(OC)c1)C2` (stereo not drawn) the AC50 [1] was 18.4 µM [falling, single point].
With `COc1ccc(C(=O)NCc2cn3ccsc3n2)cc1OC` the AC50 [1] was 1.16 µM [falling, partial curve, poor fit].
In the case of `CC1(C)Cc2ccccc2C(NNC(=O)c2ccccn2)=N1`, the AC50 [1] is reported as 29.1 µM [rising, single point] and the AC50 [2] is reported as 23.1 µM [falling, single point].
With `Cc1nc(Nc2cccc(C(C)O)c2)c2nnn(Cc3ccc(F)cc3)c2n1` (stereo not drawn) the AC50 [1] was 35.5 µM [rising, partial curve, poor fit].
With `O=C(CC(C(=O)O)C1CCCO1)NCc1ccccc1` (stereo not drawn) the AC50 [1] was 4.11 µM [falling, single point].
With `CCNc1ccc2c(Cl)cc(=O)oc2c1` the AC50 [1] was 5.17 µM [falling, partial curve, poor fit].
For `COc1ccc(C2CC(=O)N(CCCN(C)CCc3ccc(OC)c(OC)c3)C2)cc1` (stereo not drawn), the AC50 [1] was 25.1 µM [rising, single point].
For `CCc1ccc2nc(SCC(=O)NCC3CCCO3)c(C#N)cc2c1` (stereo not drawn), the AC50 [1] was 35.5 µM [rising, single point].
In the case of `COc1ccccc1NC(=O)C(CCS(C)(=O)=O)N1C(=O)c2ccccc2C1=O` (stereo not drawn), the AC50 [1] is reported as 13 µM [rising, partial curve, poor fit].
In the case of `CCC1=Nc2cc(C(=O)NCc3cccnc3)ccc2Sc2ccc(C)cc21`, the AC50 [1] is reported as 12.6 µM [rising, partial curve, poor fit] and the AC50 [2] is reported as 11.2 µM [falling, partial curve].
In the case of `COc1cc2oc(=O)c(Br)c(C)c2c(OC)c1OC`, the AC50 [1] is reported as 31.6 µM [rising, single point].
For `Cc1cc(/C=N/Nc2ncnc(N)c2[N+](=O)[O-])c(C)n1-c1ccccc1`, the AC50 [1] was 12.6 µM [falling, single point].
For `Cc1ccc(SC(C)C(=O)O/N=C(\N)c2ccncc2)cc1` (stereo not drawn), the AC50 [1] was 22.4 µM [rising, single point].
With `CC(C)CCn1c(SCCc2ccccc2)nc2c1c(=O)[nH]c(=O)n2C` the AC50 [1] was 29.1 µM [falling, single point].
For `COc1ccc(C(=O)NCc2cc(C)nc3ccccc23)cc1`, the AC50 [1] was 35.5 µM [rising, single point] and the AC50 [2] was 22.4 µM [falling, single point].
With `COC(=O)c1cnn2c(C)c(Cc3c(C)cc(C)cc3C)c(C)nc12` the AC50 [1] was 3.98 µM [rising, full curve, poor fit].
In the case of `C/C(=N\NC(=O)c1cc(-c2ccncc2)nc2ccccc12)c1ccc(N2CCOCC2)cc1`, the AC50 [1] is reported as 35.5 µM [rising, single point] and the AC50 [2] is reported as 22.4 µM [falling, single point].
For `Cc1c(C(=O)Nc2ccccc2)sc2nc3n(c(=O)c12)CCCCC3`, the AC50 [1] was 35.5 µM [falling, single point].
For `COc1ccc(S(=O)(=O)Nc2c(NC3CCCCC3)c3ccccc3oc2=O)cc1`, the AC50 [1] was 5.01 µM [falling, partial curve].
With `COc1ccc(-c2nc(-c3ccncc3)no2)cc1` the AC50 [1] was 0.447 µM [rising, full curve, poor fit].
For `CCOc1ccc(Br)cc1C1C(C(=O)OC)=C(N)Oc2cc(N(C)C)ccc21` (stereo not drawn), the AC50 [2] was 18.4 µM [falling, partial curve, poor fit].
In the case of `Cc1nc2ccccc2c2nc3ccccc3n12`, the AC50 [1] is reported as 0.00731 µM [falling, full curve, poor fit].
In the case of `O=C(CNC(=O)c1cccs1)NC1=NCCS1`, the AC50 [1] is reported as 29.1 µM [falling, single point].
With `O=C1N(CCCCN2C(=O)C3(OCCO3)c3ccccc32)c2ccccc2C12OCCO2` the AC50 [1] was 8.2 µM [rising, partial curve].
With `O=C1NC(=Nc2ccc(F)cc2)SC1Cc1ccc(F)cc1` (stereo not drawn) the AC50 [1] was 10 µM [falling, partial curve].
